Construct, isoform or probe ends are uncertain for at least one entry. At least one verdict was read from the data and is not stated in words by the source.

By UniProt entry, the sequences of proteins in these tests, tags left out. Residues count along the entry.
UniProt P07288, 25-261: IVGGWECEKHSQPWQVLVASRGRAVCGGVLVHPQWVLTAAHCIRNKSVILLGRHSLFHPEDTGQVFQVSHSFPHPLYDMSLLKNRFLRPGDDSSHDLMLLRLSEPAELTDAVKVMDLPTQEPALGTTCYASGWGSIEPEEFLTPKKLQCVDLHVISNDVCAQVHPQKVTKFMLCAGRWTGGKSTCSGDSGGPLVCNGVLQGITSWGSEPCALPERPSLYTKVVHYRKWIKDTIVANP

This is an account of results in paper PMC6429520.

The target in this data set is prostate specific antigen (PSA) (UniProt P07288). As to the kind of experiment: aptasensor: hairpin opening read by HCR, GelRed and graphene oxide fluorescence (indirect). To be noted: H2 and H3 hairpins, GelRed, GO, response linear 0.1-200 ng/mL PSA, LOD 10 pg/mL (not a Kd); commercial protein; folded or branched DNA.

As to “AGCTTTAATTAACATGTCCGACAAAAAAAAATTAATTAAAGCTCGCCATCAAATAGC [H1 (PSA aptamer hairpin with HCR trigger)]”, the binding result is reported as “binds”.
